Laboratory results: PubChem BioAssay AID652243 (Drosophila RNAi Screening Center, 2013)
Aim: 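Knock-downs that decrease or increase androgen receptor reporter signal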 (primary screen). Cell system: Drosophila S2R+ cells. Reagent: long dsRNA against Drosophila genes. Time to read-out: 72 h (48 h, then 24 h hormone). Challenge: synthetic androgen R1881 at 10 nM for 24 h. Measurement: 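Per-well raw luminescence of the androgen-driven firefly reporter and of the Renilla control, two replicates each, without normalisation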. Reading the numbers: firefly reporter light: higher = more light from androgen-responsive reporter; Renilla control light: higher = more constitutive control signal (cell number, transfection). Hit rule: 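Hit when the log firefly-to-Renilla ratio dropped or increased by a fixed fold versus the mean of GFP or LacZ controls across duplicate plates; lowering cut given as 1.5 and as 3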. Meaning of the calls: active = hit: reporter lowered or raised; inactive = no hit.
In all, the deposit lists about 24,000 reagents; below is a random part of those with a known target gene and a result. Of all reagents, 246 (1%) were called active. 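Plates not normalised; calls are printed but the firefly/Renilla ratio behind them is not deposited; fold cut for lowering reported inconsistently.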 Raw values vary from plate to plate and are shown uncorrected. Reagents against one gene are numbered here. The record does not give: the amount of reagent.

Pfas (Phosphoribosylformylglycinamidine synthase)
- firefly reporter light, replicate 1: 7.97e5
- firefly reporter light, replicate 2: 9.35e5
- Renilla control light, replicate 1: 2.25e6
- Renilla control light, replicate 2: 1.45e6
- activity call: inactive

CG31204 #1
- firefly reporter light, replicate 1: 1.49e5
- firefly reporter light, replicate 2: 1.56e5
- Renilla control light, replicate 1: 1.35e6
- Renilla control light, replicate 2: 2.57e6
- activity call: inactive

CG31204 #2
- firefly reporter light, replicate 1: 4.97e5
- firefly reporter light, replicate 2: 4.12e5
- Renilla control light, replicate 1: 1.63e6
- Renilla control light, replicate 2: 1.75e6
- activity call: inactive

kel (kelch)
- firefly reporter light, replicate 1: 1.96e5
- firefly reporter light, replicate 2: 3.39e5
- Renilla control light, replicate 1: 1.93e6
- Renilla control light, replicate 2: 2.59e6
- activity call: inactive

CG8173 #1
- firefly reporter light, replicate 1: 5.40e5
- firefly reporter light, replicate 2: 5.05e5
- Renilla control light, replicate 1: 4.13e6
- Renilla control light, replicate 2: 4.01e6
- activity call: inactive

CG8173 #2
- activity call: inactive

CG42399 #1
- firefly reporter light, replicate 1: 1.40e5
- firefly reporter light, replicate 2: 1.58e5
- Renilla control light, replicate 1: 5.86e5
- Renilla control light, replicate 2: 7.82e5
- activity call: inactive

CG42399 #2
- firefly reporter light, replicate 1: 1.16e5
- firefly reporter light, replicate 2: 1.12e5
- Renilla control light, replicate 1: 6.11e5
- Renilla control light, replicate 2: 7.10e5
- activity call: inactive

Mhcl (Myosin heavy chain-like) #1
- firefly reporter light, replicate 1: 2.51e5
- firefly reporter light, replicate 2: 2.01e5
- Renilla control light, replicate 1: 3.16e5
- Renilla control light, replicate 2: 4.73e5
- activity call: inactive

Mhcl (Myosin heavy chain-like) #2
- firefly reporter light, replicate 1: 55138
- firefly reporter light, replicate 2: 59684
- Renilla control light, replicate 1: 1.37e6
- Renilla control light, replicate 2: 1.69e6
- activity call: active

Mhcl (Myosin heavy chain-like) #3
- firefly reporter light, replicate 1: 1.25e5
- firefly reporter light, replicate 2: 1.05e5
- Renilla control light, replicate 1: 2.14e6
- Renilla control light, replicate 2: 1.96e6
- activity call: inactive

CG32260 #1
- firefly reporter light, replicate 1: 1.40e5
- firefly reporter light, replicate 2: 2.02e5
- Renilla control light, replicate 1: 4.14e5
- Renilla control light, replicate 2: 4.09e5
- activity call: inactive

CG32260 #2
- firefly reporter light, replicate 1: 7.67e5
- firefly reporter light, replicate 2: 8.45e5
- Renilla control light, replicate 1: 9.05e5
- Renilla control light, replicate 2: 9.71e5
- activity call: inactive

CG31231 #1
- firefly reporter light, replicate 1: 1.39e5
- firefly reporter light, replicate 2: 79510
- Renilla control light, replicate 1: 3.12e5
- Renilla control light, replicate 2: 3.01e5
- activity call: inactive

CG31231 #2
- firefly reporter light, replicate 1: 2.69e5
- firefly reporter light, replicate 2: 4.42e5
- Renilla control light, replicate 1: 5.54e5
- Renilla control light, replicate 2: 9.90e5
- activity call: inactive

Copied from the list.
CG31204 #1, firefly reporter light, replicate 2 → 1.56e5
Entry for kel (kelch) under “activity call”: inactive
